# Measurements taken from publication PMC12040169 (PLOS Biology, 2025).
# Some of the results follow.
# Test system: T1, CTL2-GFP (C. trachomatis L2/434/Bu, GFP-expressing)
# T1 construct: L2/434/Bu, GFP-expressing
# Parameters: species or system HeLa; Intracellular C. trachomatis growth in HeLa cells, bulk GFP fluorescence relative to DMSO
# Conditions: bulk GFP, single well; 28.5 h, 10 µM; inhibitor
row,Compound,% of control remaining [%]
1,Cc1noc(C)c1CN1CCC(c2ccccc2)CC1 [CBK306001],115.655
2,CC(C)(C)OC(=O)N1CCC[C@@H]([C@H](O)c2nccs2)C1 [CBK284283],91.1404
3,Cc1c(C)[n+]([O-])c2cc(N3CCN(C)CC3)c(Cl)cc2[n+]1[O-] [CBK263503],115.248
4,Cc1cccc(C)c1OCC(=O)N1CCC(c2cc(C(=O)NC(C)C)c3ccccc3n2)C1 (stereo not drawn) [CBK285916],93.8398
5,CC(C(=O)NC1(C#N)CCCCC1)N1CCOC(CN(C)C)C1 (stereo not drawn) [CBK305155],78.8723
6,Cc1cc(N2CCOCC2)c2c(N)c(C)cc(C)c2n1 [CBK126908],148.99
7,CCc1noc(C(C)N2CCN(CC(=O)NCc3ccco3)CC2)n1 (stereo not drawn) [CBK305368],91.1083
8,O=C(c1ccccc1)n1cc(-c2ccccn2)c(N2CCOCC2)n1 [CBK021010],110.211
9,COc1ccc(/C=C/c2nc(C#N)c(NCc3cccnc3)o2)cc1OC [CBK269240],107.273
10,OC1(c2cccnc2)C2CCCC1CN(Cc1cccc(F)c1F)C2 (stereo not drawn) [CBK285205],60.9866
11,Cc1nc(C)c(C(=O)N2CCc3[nH]c4ccccc4c3C2)o1 [CBK281873],94.7767
12,O=C(NCC1CCCCC1)N1CCN(c2ccc(F)cc2)CC1 [CBK156397],126.828
13,Oc1ccc(/C=N/Nc2nncc(-c3ccccc3)n2)c(O)c1O [CBK262492],58.496
14,Oc1ccc(CN2CCN(c3ncccn3)CC2)cc1 [CBK261567],94.8174
15,CC(=O)NCCNC(=O)c1cc(Br)c[nH]1 [CBK297767],120.816
16,O=C(c1cccc(NS(=O)(=O)c2cc(F)c(Br)cc2F)c1)N1CCOCC1 [CBK039007],109.205
17,Cc1csc2ncnc(NCCc3ccccn3)c12 [CBK017060],105.245
18,Cc1nc(C2CN(Cc3c(Cl)ccc4cccnc34)CCO2)no1 (stereo not drawn) [CBK305317],117.582
19,CC1(C)CC(=NNC(=O)CCc2cc(C(C)(C)C)c(O)c(C(C)(C)C)c2)CC(C)(C)N1 [CBK261952],98.0995
20,O=C(O)c1cccc(-n2c(S)nnc2-c2ccc3ccccc3n2)c1 [CBK265810],108.673
21,O=C(N/N=C/c1cc(Br)cc(Br)c1O)C(Oc1ccccc1)Oc1ccccc1 [CBK262164],116.189
22,O=C(Nc1cnc(-c2cccc(C(F)(F)F)c2)c(-c2cccnc2)n1)c1cc(-c2ccco2)n[nH]1 [CBK036878],125.2
23,Cc1cc2c(s1)c1cnn(CC(=O)N(C)C)c(=O)c1n2C [CBK284231],116.683
24,COc1ccc(Nc2nc(-c3cccnc3)cs2)c(OC)c1 [CBK126814],122.013
25,OCC1CCCN1c1nc(-c2ccc(Oc3ccccc3)cc2)cn2ccnc12 (stereo not drawn) [CBK066713],162.592
26,CN1CCCC(OC(=O)C2CCCCC2)C1 (stereo not drawn) [CBK090234],108.252

# Quoted at random: four entries already listed, in no set order.
row,Compound,% of control remaining [%]
1,Cc1noc(C)c1CN1CCC(c2ccccc2)CC1 [CBK306001],115.655
20,O=C(O)c1cccc(-n2c(S)nnc2-c2ccc3ccccc3n2)c1 [CBK265810],108.673
26,CN1CCCC(OC(=O)C2CCCCC2)C1 (stereo not drawn) [CBK090234],108.252
22,O=C(Nc1cnc(-c2cccc(C(F)(F)F)c2)c(-c2cccnc2)n1)c1cc(-c2ccco2)n[nH]1 [CBK036878],125.2

# (list continues)

row,Compound,% of control remaining [%]
1,COc1cc(C(=O)N2CCN(S(=O)(=O)c3ccccc3[N+](=O)[O-])CC2)cc(OC)c1OC [CBK264182],125.54
2,Cn1cc(C2CNCCN2C(=O)CCCc2csc3ccccc23)cn1 (stereo not drawn) [CBK304274C],132.463
3,CN(C)CCN1CCN(c2nc(-c3ccc(S(C)(=O)=O)cc3)cnc2N)CC1 [CBK063457],111.695
4,CNC(=O)c1sc2ccccc2c1C1CCN(C(=O)CCN(C)c2ccc(F)cc2)C1 (stereo not drawn) [CBK285878],98.7405
5,N#Cc1nonc1NCn1nnc2ccccc21 [CBK062650],120.908
6,O=C(c1cc(-c2ccccn2)n[nH]1)N1CCC(c2ccccc2)C1 (stereo not drawn) [CBK281852],139.091
7,OCC1CCCCC1NCCCC(c1ccc(F)cc1)c1ccc(F)cc1 (stereo not drawn) [CBK015830C],137.723
8,CC(C)CC(C(=O)Nc1ccc(Br)cc1)N1C(=O)c2ccccc2C1=O (stereo not drawn) [CBK264253],92.0005
9,Cc1ccc(S(=O)(=O)N(CC(=O)Nc2cccnc2)c2cccc([N+](=O)[O-])c2)cc1 [CBK266404],101.303
10,NC(=O)c1ccc(-c2cc(Nc3ccc(CCO)cc3)ncn2)cc1 [CBK090773],110.252
11,COc1ccccc1CNCc1ccc(CNC(=O)OC(C)(C)C)cc1 [CBK056702],100.097
12,Cc1nc(CC(=O)Nc2nn(C)c3cccc(N4CCOCC4)c23)cs1 [CBK306627],126.592
13,O=C(Cn1cc(-c2ccc(CN3CCOCC3)cc2)nn1)NCc1cccc(C(F)(F)F)c1 [CBK165803],123.604
14,O=C(CN1CCC(C(O)C(=O)NC2CC2)CC1)Nc1cc(Cl)ccc1F (stereo not drawn) [CBK305477],150.457
15,Cc1nnc(CN(C)C2CCN(Cc3ccc4c(c3)CCC4)C2)n1C (stereo not drawn) [CBK304450],109.551
16,COc1ccc(C2c3ccccc3C[N+]3(C)CCCN23)cc1 (stereo not drawn) [CBK008769],98.8046
17,Clc1ccccc1CSc1nnc2c(n1)OC=Nc1ccccc1-2 [CBK265085],121.419
18,c1ccc(Nc2nc(-c3ccco3)cn3ccnc23)cc1 [CBK037947],167.083
19,CC(C)OCC(O)C[S+]([O-])Cc1ccccc1 (stereo not drawn) [CBK261761],118.852
20,CC(C)(C)OC(=O)N(Cc1cccs1)S(C)(=O)=O [CBK019338],159.647
21,Cc1c(Cl)cccc1S(=O)(=O)Nc1ccc(C(=O)O)cc1 [CBK034050],96.8235
22,O=S(=O)(Nc1nncs1)c1ccccc1 [CBK045489],121.265
23,CC(C)(CN)CN(Cc1cccc2ccccc12)C(=O)NC1C[C@H]1c1ccccc1 (stereo partly drawn) [CBK000490C],65.9752
24,CCOc1ccc(Nc2cc(Cl)nc(N)n2)cc1 [CBK288069],86.0106
25,CC(NC(=O)N1CCCCC1CO)c1ccccc1 (stereo not drawn) [CBK155988],122.757
